Counter-ions that a name gives are not always drawn. This is one part of the list. This data set is noisy: repeats of one test often differ as much as different tests do.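 JEG3 cells stably carry tetracycline-induced wild-type human LRH-1, a heavily sumoylated nuclear receptor. APOC3 and MUC1 are SUMO-sensitive transcripts, raised by SUMO-less LRH-1 or UBC9 knockdown, measured by RT-qPCR against TBP and DMSO controls. A robust Z-score above +2 or below -2 marked a primary hit before toxicity and TBP filtering.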
system: JEG3 expressing hLRH-1; experiment: APOC3 transcript change (ddCt vs TBP and DMSO), Z-score over library; higher = higher APOC3 expression; settings: 10 µM; time (hr): 24

Point of comparison: `CCC(=O)OCC(=O)[C@@]1(OC(=O)CC)[C@@H](C)CC2C3CCC4=CC(=O)C=C[C@]4(C)C3(F)[C@@H](O)C[C@@]21C` (some centres not stated) [betamethasone 17,21-dipropionate], “APOC3 transcript change (Z-score)” value 0.386. Against it:
- CC[C@H](C)C(=O)O[C@H]1CCC=C2C=C[C@H](C)C(CCC3C[C@@H](O)CC(=O)O3)[C@H]21 (some centres not stated) [compactin] — higher, 0.627
- CC(=O)N[C@@H]1[C@@H](C(O)[C@H](O)CO)O[C@](O)(C(=O)O)C[C@@H]1O (some centres not stated) [n-acetylneuramic acid] — lower, 0.305
- Nc1nc(O)c2c(n1)NCC(CNc1ccc(C(=O)N[C@@H](CCC(=O)O)C(=O)O)cc1)N2C=O (some centres not stated) [leucovorin calcium] — lower, -2.05
- C[C@]12C=CC(=O)N[C@@H]1CC[C@@H]1[C@@H]2CC[C@]2(C)[C@@H](C(=O)Nc3cc(C(F)(F)F)ccc3C(F)(F)F)CC[C@@H]12 [dutasteride] — lower, 0.0267
- CO[C@H]1/C=C/O[C@@]2(C)Oc3c(C)c(O)c4c(O)c(c5c(nc6cc(C)ccn65)c4c3C2=O)NC(=O)/C(C)=C\C=C\[C@H](C)[C@H](O)[C@@H](C)[C@@H](O)[C@@H](C)[C@H](OC(C)=O)[C@@H]1C [rifaximin] — lower, -0.0337
- C=CCc1ccccc1OCC(O)CNC(C)C (configuration not stated) [Alprenolol hydrochloride] — lower, 0.126
- C(=C\N1CCN(C(c2ccccc2)c2ccccc2)CC1)/Cc1ccccc1 [cinnarazine] — lower, 0.229
- Cc1cc(O)c(C(=O)N[C@@H](C(=O)N[C@@H]2C(=O)N3C(C(=O)O)=C(CSc4nnnn4C)CS[C@H]23)c2ccc(O)cc2)cn1 [cefpiramide] — higher, 0.653
- CCCNC(=O)NS(=O)(=O)c1ccc(Cl)cc1 [Chlorpropamide] — lower, -0.507
- CNCCc1ccccn1 [betahistine hydrochloride] — lower, -0.431
- Cc1ccnc2c1NC(=O)c1cccnc1N2C1CC1 [nevirapine] — lower, -0.49
- NCCCCCC(=O)O [aminocaproic acid] — lower, -0.23
- CO/N=C(/C(=O)N[C@@H]1C(=O)N2C(C(=O)OCSC(=O)c3ccco3)=CCS[C@H]12)c1csc(N)n1 [ceftiofur hydrochloride] — lower, -0.776
- N#C[C@@H]1C[C@@H]2C[C@@H]2N1C(=O)[C@@H](N)[C@]12CC3CC(C[C@@](O)(C3)C1)C2 [saxagliptin] — higher, 0.399
- CCN(CC)C(=O)c1ccc(O)c(OC)c1 [ethamivan] — lower, 0.209
- CCC(C)n1ncn(-c2ccc(N3CCN(c4ccc(OC[C@H]5CO[C@](Cn6cncn6)(c6ccc(Cl)cc6Cl)O5)cc4)CC3)cc2)c1=O (some centres not stated) [itraconazole] — higher, 0.442
- CC(=O)[C@@]1(O)CC[C@H]2[C@@H]3CCC4=CC(=O)CC[C@]4(C)[C@H]3CC[C@@]21C [hydroxyprogesterone] — lower, 0.264
- CCOC(=O)[C@H](CCc1ccccc1)N[C@@H](C)C(=O)N1Cc2ccccc2C[C@H]1C(=O)O [quinapril hydrochloride] — lower, -1.5
- CCC1NC(=O)c2cc(S(N)(=O)=O)c(Cl)cc2N1 (configuration not stated) [quinethazone] — lower, -0.458
- O=C1NCC2(CCN(CCc3ccccc3)CC2)O1 [fenspiride hydrochloride] — lower, -0.241
- CNCCCC12CCC(c3ccccc31)c1ccccc12 [maprotiline hydrochloride] — lower, 0.0251
- CCCOc1ccc2[nH]c(NC(=O)OC)nc2c1 [oxybendazole] — lower, -2.13
- Cc1cc2nc3c(=O)[nH]c(=O)nc-3n(C[C@H](O)[C@H](O)[C@H](O)CO)c2cc1C [riboflavin] — lower, -0.601
- O=C(O)Cc1cc(I)c(Oc2ccc(O)c(I)c2)c(I)c1 [tiratricol] — lower, 0.0146
- Cc1cc(-c2ccccc2)nnc1NCCN1CCOCC1 [minaprine hydrochloride] — higher, 0.4
- O=C(OOC(=O)c1ccccc1)c1ccccc1 [benzoyl peroxide] — lower, 0.208
- COC(=O)[C@H]1[C@H]2C[C@@H]3c4[nH]c5cc(OC)ccc5c4CCN3C[C@H]2C[C@@H](OC(=O)c2cc(OC)c(OC)c(OC)c2)[C@@H]1OC [reserpine] — lower, 0.00039
- CCCCC(CC)COC(=O)CC(C(=O)OCC(CC)CCCC)S(=O)(=O)O (configuration not stated) [docusate sodium] — lower, -2.95
- C[C@@](Cc1ccc(O)c(O)c1)(NN)C(=O)O [S-(-)-Carbidopa] — lower, -0.378
- CC[C@H](C)[C@H](N)C(=O)O [isoleucine (l)] — lower, -0.14
- CC[C@H]1OC(=O)[C@H](C)[C@@H](O[C@H]2C[C@@](C)(OC)[C@@H](O)[C@H](C)O2)[C@H](C)[C@@H](O[C@@H]2O[C@H](C)C[C@H](N(C)C)[C@H]2O)[C@](C)(O)C[C@@H](C)/C(=N\OCOCCOC)[C@H](C)[C@@H](O)[C@]1(C)O [roxithromycin] — higher, 0.464
- Oc1c(Cl)cc(Cl)c2cccnc12 [chloroxine] — lower, -0.2
- C/C(=C(/CCOP(=O)(O)O)SC(=O)c1ccccc1)N(C=O)Cc1cnc(C)nc1N (stereo in doubt) [benfotiamine] — higher, 0.84
- O=C(O)CCNC(=O)c1ccccc1 [betamipron] — lower, -1.01
- CC(C)OC(=O)C(C)(C)Oc1ccc(C(=O)c2ccc(Cl)cc2)cc1 [fenofibrate] — higher, 0.686
- OCC(O)[C@@H](O)CO (some centres not stated) [erythritol] — higher, 0.598
- CCOc1ccccc1OCCNC(C)Cc1ccc(OC)c(S(N)(=O)=O)c1 (configuration not stated) [tamsulosin hydrchloride] — higher, 0.394
- C=C1c2cccc(O)c2C(O)=C2C(=O)[C@]3(O)C(O)=C(C(N)=O)C(=O)[C@@H](N(C)C)[C@@H]3[C@@H](O)[C@H]12 [methacycline hydrochloride] — higher, 0.852
- Nc1ccc(S(=O)(=O)Nc2ccccn2)cc1 [sulfapyridine] — lower, -1.42
- CC(C(=O)O)c1cccc(C(=O)c2ccccc2)c1 (configuration not stated) [ketoprofen] — lower, -1.29
- CCn1cc(C(=O)O)c(=O)c2cc(F)c(N3CCNC(C)C3)c(F)c21 (configuration not stated) [lomefloxacin hydrochloride] — lower, -0.0954
- CC1=NS(=O)(=O)c2cc(Cl)ccc2N1 [Diazoxide] — lower, -0.266
- Cn1nnnc1SCC1=C(C(=O)O)N2C(=O)C(NC(=O)C(O)c3ccccc3)C2SC1 (configuration not stated) [cefamandole sodium] — higher, 0.425
- Nc1ccc(S(=O)(=O)Nc2ncccn2)cc1 [sulfadiazine] — lower, 0.25
- CC1(C)C2CCC1(CS(=O)(=O)O)C(=O)/C2=C\c1ccc(/C=C2\C(=O)C3(CS(=O)(=O)O)CCC2C3(C)C)cc1 [ecamsule triethanolamine] — lower, -0.135
- Cc1ccc(S(=O)(=O)NC(=O)NN2CCCCCC2)cc1 [Tolazamide] — higher, 0.414
- CCN(CC)CCOC(=O)C(Cc1cccc2ccccc12)CC1CCCO1 (configuration not stated) [nafronyl oxalate] — lower, -0.625
- Nc1cc(N2CCCCC2)nc(N)[n+]1[O-] [Minoxidil] — higher, 0.398
- COC(=O)Nc1nc2cc(Sc3ccccc3)ccc2[nH]1 [fenbendazole] — lower, -0.802
- CC(C(=O)O)c1ccc2c(c1)Cc1cccnc1O2 (configuration not stated) [pranoprofen] — lower, 0.118
- CN1C(CCl)Nc2cc(Cl)c(S(N)(=O)=O)cc2S1(=O)=O (configuration not stated) [methyclothiazide] — lower, -0.249
- CC(=O)N(CC(O)CO)c1c(I)c(C(=O)NCCO)c(I)c(C(=O)NCC(O)CO)c1I (configuration not stated) [ioxilan] — lower, -0.391
- CC(C)Cc1ccc([C@H](C)C(=O)O)cc1 [dexibuprofen] — higher, 1.03
- NC[C@H](O)c1ccc(O)c(O)c1 [norepinephrine] — lower, -0.0168
- CCN(CC)CCNC(=O)c1ccc(N)cc1 [Procainamide hydrochloride] — lower, -0.248
- CC(C)(C)NC[C@H](O)COc1ccccc1C1CCCC1 [penbutolol sulfate] — higher, 0.417
- CN[C@@H]1[C@@H](O[C@H]2O[C@H](CO)[C@@H](N)[C@H](O)[C@H]2O)O[C@H]2C[C@@H](N)[C@H](O[C@H]3[C@H](O)[C@@H](O)[C@H](N)C[C@@H]3N)O[C@@H]2[C@@H]1O [apramycin sulfate] — lower, -0.128
- CN(C)CCN(Cc1ccc(Cl)cc1)c1ccccn1 [chloropyramine hydrochloride] — lower, -1.18
- O=C(O)C1=C(CSc2nnnn2CS(=O)(=O)O)CS[C@@H]2[C@H](NC(=O)[C@H](O)c3ccccc3)C(=O)N12 [cefonicid sodium] — higher, 0.5
- Nc1nc(O)c2ncn(COCCO)c2n1 [Acyclovir] — lower, -0.0831
- CCOC(=O)[C@H](CCc1ccccc1)N[C@H]1CCc2ccccc2N(CC(=O)O)C1=O [benazepril hydrochloride] — lower, 0.374
- CC(=O)Nc1ccc(S(=O)(=O)c2ccc(NC(C)=O)cc2)cc1 [acedapsone] — higher, 0.676
- COC(=O)[C@H](Cc1ccccc1)NC(=O)[C@@H](N)CC(=O)O [aspartame] — higher, 1.09
- CN(C)CCOC(c1ccccc1)c1ccccc1.Cn1c(=O)c2[nH]c(Cl)nc2n(C)c1=O [dimenhydrinate] — lower, -0.312
- N=C(NCCCCCCNC(=N)NC(=N)Nc1ccc(Cl)cc1)NC(=N)Nc1ccc(Cl)cc1 [chlorhexidine] — lower, 0.11
- CCCCCCCCCCCCCCCC(=O)OC/C=C(C)/C=C/C=C(C)/C=C/C1=C(C)CCCC1(C)C [retinyl palmitate] — lower, 0.212
- CO/N=C(\C(=O)N[C@@H]1C(=O)N2C(C(=O)O)=C(COC(C)=O)CS[C@H]12)c1csc(N)n1 [cefotaxime sodium] — higher, 1.95
- COc1cc(C(=O)N2CCOCC2)cc(OC)c1OC [trimetozine] — lower, 0.127
- C=COCC(F)(F)F [fluroxene] — lower, -0.327
- CC(=O)Nc1c(I)cc(I)c(C(=O)O)c1I [acetriazoic acid] — higher, 0.518
- O=NN(CCCl)C(=O)NC1CCCCC1 [lomustine] — higher, 0.813

From the supplement of paper PMC4749390
